According to article PMC2935355, “The G215R Mutation in the Cl^−/H^+-Antiporter ClC-7 Found in ADO II Osteopetrosis Does Not Abolish Function but Causes a Severe Trafficking Defect” (PLoS ONE, 2010):

Target: T1, ClC-7 (Rattus norvegicus, UniProt P51799)
T1 construct: gene Clcn7; wt rat ClC-7 with C-terminal EGFP fusion; with Ostm1 (mouse)
T1 sequence (P51799 1-803): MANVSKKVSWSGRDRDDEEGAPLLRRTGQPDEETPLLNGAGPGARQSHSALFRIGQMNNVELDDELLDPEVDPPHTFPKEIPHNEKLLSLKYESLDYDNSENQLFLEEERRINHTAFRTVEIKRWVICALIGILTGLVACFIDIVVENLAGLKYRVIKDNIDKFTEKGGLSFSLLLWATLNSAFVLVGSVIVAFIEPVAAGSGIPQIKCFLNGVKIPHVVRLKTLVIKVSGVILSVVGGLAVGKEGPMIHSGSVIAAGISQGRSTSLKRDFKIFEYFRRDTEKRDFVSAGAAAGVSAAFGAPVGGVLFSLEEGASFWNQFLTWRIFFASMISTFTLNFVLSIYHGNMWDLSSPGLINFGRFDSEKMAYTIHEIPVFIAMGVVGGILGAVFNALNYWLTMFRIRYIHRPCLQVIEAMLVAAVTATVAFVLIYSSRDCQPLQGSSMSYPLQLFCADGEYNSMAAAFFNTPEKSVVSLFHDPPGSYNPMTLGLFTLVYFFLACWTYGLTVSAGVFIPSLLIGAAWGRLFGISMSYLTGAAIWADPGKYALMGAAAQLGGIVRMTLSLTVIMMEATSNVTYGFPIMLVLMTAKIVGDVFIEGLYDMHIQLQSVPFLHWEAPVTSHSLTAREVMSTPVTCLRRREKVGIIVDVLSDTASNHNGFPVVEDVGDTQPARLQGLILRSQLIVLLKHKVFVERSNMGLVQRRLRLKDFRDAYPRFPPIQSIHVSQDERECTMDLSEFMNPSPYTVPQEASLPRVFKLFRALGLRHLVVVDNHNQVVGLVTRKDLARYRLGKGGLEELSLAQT
T1 sequence (Q8BGT0 35-338 partner): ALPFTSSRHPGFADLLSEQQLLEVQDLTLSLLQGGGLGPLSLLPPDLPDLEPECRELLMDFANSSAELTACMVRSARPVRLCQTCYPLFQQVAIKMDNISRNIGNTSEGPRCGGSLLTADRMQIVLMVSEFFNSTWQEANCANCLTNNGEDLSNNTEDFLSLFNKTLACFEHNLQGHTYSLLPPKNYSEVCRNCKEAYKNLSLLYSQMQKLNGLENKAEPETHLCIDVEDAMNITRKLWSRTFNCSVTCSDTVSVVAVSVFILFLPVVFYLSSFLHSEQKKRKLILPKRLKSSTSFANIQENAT
Experiment: SSM-based electrophysiology on lysosomal membrane fraction of CHO cells, […] NaCl jump
Assay type: biochemical

NS(=O)(=O)c1cc(C(=O)O)c(NCc2ccco2)cc1Cl [compound 4, Furosemide]
IC50: 650 µM
